# According to the supplement of paper PMC10338343:
# ± gives the standard deviation. Only a part is listed here, and it is no random draw. Many of these values have a large error. The list shows a part of the results.
# Key:
# [1] = system: MIWI (PIWIL1) piRISC loaded with L1MC piRNA (30 nt); test: pre-steady-state target cleavage rate (min^-1); higher = faster piRNA-guided slicing of the target; settings: guide: L1MC piRNA 5'p-UAACUAAAUACUAUGCAAGCUGUAGGUCCU;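 further: 1 nM active piRISC with 0.1 nM target library at 33 °C single turnover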
# Outline: (§1)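 For Cleave-'n-Seq, a transcribed, DNA-blocked target RNA library […] met 1 nM active affinity-purified piRISC with one synthetic guide at 33 °C for 0–8 or 0–960 min in HEPES–potassium acetate buffer, with or without 500 nM GTSF1 partner protein. Uncleaved targets were sequenced and normalised to depth and weakly complementary targets, with three trials pooled and k3 capped at 0.0001 min^-1. A burst-and-steady-state fit supplied the pre-steady-state cleavage rate.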
# [2] = system: EfPiwi piRISC loaded with L1MC piRNA (26 nt); test: pre-steady-state target cleavage rate (min^-1); guide: L1MC piRNA 5'p-UAACUAAAUACUAUGCAAGCUGUAGG; MIWI and MILI are mouse PIWI proteins and EfPiwi is from a freshwater sponge; tags in brackets are library labels; higher = faster piRNA-guided slicing of the target
# Outline: as §1
# [3] = auxiliary factor: none (no GTSF1)
# [4] = auxiliary factor: 500 nM Ephydatia muelleri Gtsf1
# [5] = auxiliary factor: none (no Gtsf1)
sequence,measurement,setting,value
UCCUGGAUGUCGAAGCAAAGUAUUUAGAUA,pre-steady-state target cleavage rate,[1]; [3],0.000561 ± 0.011
same,pre-steady-state target cleavage rate,[2]; [4],0.000639 ± 0.011
same,pre-steady-state target cleavage rate,[2]; [5],< 0.0001
UCCUGGUACAGCUUGCAUAGUAUAAACAAA,pre-steady-state target cleavage rate,[1]; [3],0.00126 ± 0.0061
same,pre-steady-state target cleavage rate,[2]; [4],0.000856 ± 0.0054
same,pre-steady-state target cleavage rate,[2]; [5],0.000277 ± 0.026
UCCUGGAACAGCUUCCAUAGUAUUUAGUAA,pre-steady-state target cleavage rate,[1]; [3],0.00152 ± 0.0055
same,pre-steady-state target cleavage rate,[2]; [4],0.00376 ± 0.0014
same,pre-steady-state target cleavage rate,[2]; [5],0.0008 ± 0.013
UCCUGGAACAGCUUGCAUAGAUAUUAGAAA,pre-steady-state target cleavage rate,[1]; [3],0.000997 ± 0.0071
same,pre-steady-state target cleavage rate,[2]; [4],0.00054 ± 0.0059
same,pre-steady-state target cleavage rate,[2]; [5],0.000274 ± 0.018
UCCUGGAUGUCGAAGCAUAGUAAUAAGUUA,pre-steady-state target cleavage rate,[1]; [3],0.00014 ± 0.045
same,pre-steady-state target cleavage rate,[2]; [4],0.000269 ± 0.0088
same,pre-steady-state target cleavage rate,[2]; [5],0.00032 ± 0.022
UCCUGGAUGUCCAAGCAUAGUAUUUAGUUA,pre-steady-state target cleavage rate,[1]; [3],0.00164 ± 0.005
same,pre-steady-state target cleavage rate,[2]; [4],0.00166 ± 0.0034
same,pre-steady-state target cleavage rate,[2]; [5],0.000342 ± 0.019
UCCUGGAUGUCCUUGCAUAGAAUUUAGUUA,pre-steady-state target cleavage rate,[1]; [3],0.00253 ± 0.0038
same,pre-steady-state target cleavage rate,[2]; [4],0.000878 ± 0.0046
same,pre-steady-state target cleavage rate,[2]; [5],0.000312 ± 0.011
UCCUGGAACAGGAUGCAUAGUAUUUUCAAA,pre-steady-state target cleavage rate,[1]; [3],0.000604 ± 0.0091
same,pre-steady-state target cleavage rate,[2]; [4],0.00106 ± 0.0027
same,pre-steady-state target cleavage rate,[2]; [5],0.00031 ± 0.018
UCCUGCUACAGCUUGUCAUAGUAUUUAGUUA,pre-steady-state target cleavage rate,[1]; [3],0.00205 ± 0.004
same,pre-steady-state target cleavage rate,[2]; [4],0.0131 ± 0.0037
same,pre-steady-state target cleavage rate,[2]; [5],0.00109 ± 0.0063
UCCUGGAACAGCUUGCAUAGUAAUAAGUUA,pre-steady-state target cleavage rate,[1]; [3],0.00233 ± 0.0038
same,pre-steady-state target cleavage rate,[2]; [4],0.00229 ± 0.0024
same,pre-steady-state target cleavage rate,[2]; [5],0.000394 ± 0.019
UCCUCCUACAGCUUCGAUAGUAUUUAGAAA,pre-steady-state target cleavage rate,[1]; [3],0.000305 ± 0.0086
same,pre-steady-state target cleavage rate,[2]; [4],0.00217 ± 0.0024
same,pre-steady-state target cleavage rate,[2]; [5],0.000343 ± 0.014
UCCUGGUACAGCUUGCCAUAGUAUUUAGUUA,pre-steady-state target cleavage rate,[1]; [3],0.0026 ± 0.0033
same,pre-steady-state target cleavage rate,[2]; [4],0.0045 ± 0.0021
same,pre-steady-state target cleavage rate,[2]; [5],0.00103 ± 0.0096
UCCUGGAUGUGCUUGCAUAGUAUUUUCUAA,pre-steady-state target cleavage rate,[1]; [3],0.00234 ± 0.0031
same,pre-steady-state target cleavage rate,[2]; [4],0.00171 ± 0.0043
same,pre-steady-state target cleavage rate,[2]; [5],0.000202 ± 0.047
UCCUGGAUGUCCUAGCAUAGUAUUUAGUUA,pre-steady-state target cleavage rate,[1]; [3],0.0026 ± 0.0028
same,pre-steady-state target cleavage rate,[2]; [4],0.00246 ± 0.0036
same,pre-steady-state target cleavage rate,[2]; [5],0.00102 ± 0.0069
UCCUGGAACAGGUUGCAUAGUAUUUACAAA,pre-steady-state target cleavage rate,[1]; [3],0.00147 ± 0.0038
same,pre-steady-state target cleavage rate,[2]; [4],0.0012 ± 0.003
same,pre-steady-state target cleavage rate,[2]; [5],0.000104 ± 0.059
UCCUGGAUGUCGAAGCAAAGUAUUUACUUA,pre-steady-state target cleavage rate,[1]; [3],0.000352 ± 0.019
same,pre-steady-state target cleavage rate,[2]; [4],0.000299 ± 0.021
same,pre-steady-state target cleavage rate,[2]; [5],< 0.0001
UCCUGGUACUCCUUGCAUAGUAUUUUCAAA,pre-steady-state target cleavage rate,[1]; [3],0.00149 ± 0.0047
same,pre-steady-state target cleavage rate,[2]; [4],0.000594 ± 0.0044
same,pre-steady-state target cleavage rate,[2]; [5],0.000119 ± 0.043
UCCUGGAUGUCGUUGCAUAGUAUUUCAGUUA,pre-steady-state target cleavage rate,[1]; [3],0.00118 ± 0.0071
same,pre-steady-state target cleavage rate,[2]; [4],0.00109 ± 0.0077
same,pre-steady-state target cleavage rate,[2]; [5],0.000605 ± 0.015
UCCUGGAUGUCGAAGCAUAGUAAUUUAGUUA,pre-steady-state target cleavage rate,[1]; [3],0.00155 ± 0.0052
same,pre-steady-state target cleavage rate,[2]; [4],0.00016 ± 0.022
same,pre-steady-state target cleavage rate,[2]; [5],0.000108 ± 0.034
UCCUGGAUGACCAUGCAUAGUAUUUAGUUA,pre-steady-state target cleavage rate,[1]; [3],0.00102 ± 0.0043
same,pre-steady-state target cleavage rate,[2]; [4],0.00488 ± 0.0028
same,pre-steady-state target cleavage rate,[2]; [5],0.000373 ± 0.032
UCCUGGAUGUCGAAGCAAACUAUUUAGUUA,pre-steady-state target cleavage rate,[1]; [3],0.00044 ± 0.013
same,pre-steady-state target cleavage rate,[2]; [4],0.000232 ± 0.0091
same,pre-steady-state target cleavage rate,[2]; [5],0.000162 ± 0.047
UCCUGGAACAGCUACCAUAGUAUUUUCAAA,pre-steady-state target cleavage rate,[1]; [3],0.000732 ± 0.01
same,pre-steady-state target cleavage rate,[2]; [4],0.000668 ± 0.006
same,pre-steady-state target cleavage rate,[2]; [5],0.000386 ± 0.018
UCCUGGAUGUGCUUGCAAGUAUUUAGUUA,pre-steady-state target cleavage rate,[1]; [3],0.00174 ± 0.004
same,pre-steady-state target cleavage rate,[2]; [4],0.00109 ± 0.0076
same,pre-steady-state target cleavage rate,[2]; [5],0.00049 ± 0.017
UCCUGGAUGUGCUUGCAUAGUGAUUUAGUUA,pre-steady-state target cleavage rate,[1]; [3],0.00282 ± 0.0037
same,pre-steady-state target cleavage rate,[2]; [4],0.00141 ± 0.0078
same,pre-steady-state target cleavage rate,[2]; [5],0.000426 ± 0.02
UCCUGGAUGAGCUUGCAUAGUAAAUAGAAA,pre-steady-state target cleavage rate,[1]; [3],0.000509 ± 0.0086
same,pre-steady-state target cleavage rate,[2]; [4],0.000801 ± 0.0068
same,pre-steady-state target cleavage rate,[2]; [5],0.000436 ± 0.015
UCCUGGAUGUCGAACGUAUGUAUAUUAGUUA,pre-steady-state target cleavage rate,[1]; auxiliary factor: 500 nM mouse GTSF1,0.000135 ± 0.038
same,pre-steady-state target cleavage rate,[2]; [4],0.000289 ± 0.026
same,pre-steady-state target cleavage rate,[2]; [5],< 0.0001

# Four records drawn at random from the list so far, as already listed:
sequence,measurement,setting,value
UCCUGGAUGACCAUGCAUAGUAUUUAGUUA,pre-steady-state target cleavage rate,[2]; [4],0.00488 ± 0.0028
UCCUGGAACAGCUUGCAUAGUAAUAAGUUA,pre-steady-state target cleavage rate,[2]; [5],0.000394 ± 0.019
UCCUGGAUGUCCUUGCAUAGAAUUUAGUUA,pre-steady-state target cleavage rate,[2]; [5],0.000312 ± 0.011
UCCUGGAUGUCCAAGCAUAGUAUUUAGUUA,pre-steady-state target cleavage rate,[1]; [3],0.00164 ± 0.005
